From PMC6717914 come the findings set out here.

Chains of the proteins cited; added tags and fusions are not shown.
UniProt P49597: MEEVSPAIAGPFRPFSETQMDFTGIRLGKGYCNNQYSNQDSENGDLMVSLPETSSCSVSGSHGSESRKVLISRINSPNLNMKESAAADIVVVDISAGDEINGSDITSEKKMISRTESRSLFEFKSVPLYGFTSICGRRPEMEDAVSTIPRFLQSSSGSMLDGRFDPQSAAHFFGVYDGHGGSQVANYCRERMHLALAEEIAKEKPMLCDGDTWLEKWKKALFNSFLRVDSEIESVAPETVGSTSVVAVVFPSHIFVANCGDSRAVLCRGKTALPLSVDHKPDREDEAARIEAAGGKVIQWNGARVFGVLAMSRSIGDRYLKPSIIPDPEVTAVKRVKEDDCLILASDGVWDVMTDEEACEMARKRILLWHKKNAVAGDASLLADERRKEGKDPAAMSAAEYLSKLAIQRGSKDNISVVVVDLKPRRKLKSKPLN

This experiment has as its target ABI1 tagged by mCherry fluorophore (Arabidopsis) (UniProt P49597). In words: FRET or BRET; FRET-FLIM as competition: GFP:SnRK2 and mCherry:ABI1 with co-expressed RCAR1 or RCAR14 in N. benthamiana leaves, without or with exogenous ABA sprayed 2 h before microscopy (up to 0.1 mM). Background: Bioluminescence resonance energy transfer reports proximity on the nanometre scale.

No constants are given. Whether binding was seen depends on the method and setting. In cells and extracts the contact can be indirect. Some results given as binding are weak or reduced against the parent protein; the word gives no strength. Tags and fused reporters may be left off the sequences shown.

B1: SnRK2.4 as GFP fusion protein (enzyme, UniProt P43291 1-363)
chain: MDKYELVKDIGAGNFGVARLMKVKNSKELVAMKYIERGPKIDENVAREIINHRSLRHPNIIRFKEVVLTPTHLAIAMEYAAGGELFERICSAGRFSEDEARYFFQQLISGVSYCHAMQICHRDLKLENTLLDGSPAPRLKICDFGYSKSSLLHSRPKSTVGTPAYIAPEVLSRREYDGKMADVWSCGVTLYVMLVGAYPFEDQEDPKNFRKTIQKIMAVQYKIPDYVHISQDCKNLLSRIFVANSLKRITIAEIKKHSWFLKNLPRELTETAQAAYFKKENPTFSLQTVEEIMKIVADAKTPPPVSRSIGGFGWGGNGDADGKEEDAEDVEEEEEEVEEEEDDEDEYDKTVKEVHASGEVRIS
On to B1, for which the binding result was “binds”.

B2: RCAR1 (receptor, UniProt Q84MC7 1-187)
chain: MMDGVEGGTAMYGGLETVQYVRTHHQHLCRENQCTSALVKHIKAPLHLVWSLVRRFDQPQKYKPFVSRCTVIGDPEIGSLREVNVKSGLPATTSTERLELLDDEEHILGIKIIGGDHRLKNYSSILTVHPEIIEGRAGTMVIESFVVDVPQGNTKDETCYFVEALIRCNLKSLADVSERLASQDITQ
Take B2: the binding entry is “binds”.
